Laboratory results as given in patent publication US10905770B2, “Topical delivery of therapeutic agents using cell-penetrating peptides for the treatment of age-related macular degeneration and other eye diseases” (priority 2017, dated 2021).

Experimental: Lutein was dissolved in DMSO (10 mg/mL) and titrated into water. […] As a proxy for topical delivery into the eye by eye drop, 50 μL of lutein plus hexa-arginine (SEQ ID NO: 258) or lutein alone was applied to one side of the outer shell membrane of a chicken egg, and the material that crossed the membrane in water was collected after 2 minutes. The level of lutein was measured by absorbance. The experiment was conducted three times (n=3).
Zeaxanthin was dissolved in DMF (10 mg/mL) and titrated into water. […] The level of zeaxanthin was measured by absorbance. […]
Lutein was dissolved in DMSO (10 mg/mL) and titrated into water, zeaxanthin was dissolved in DMF (10 mg/mL) and titrated into water, and then lutein and zeaxanthin were mixed in a 1:1 ratio. […] The level of lutein and zeaxanthin was measured by absorbance. […]
Dexamethasone was dissolved in DMSO and titrated into water. […] The presence of dexamethasone was detected by electrospray mass spectroscopy.
Tacrolimus was dissolved in DMSO and titrated into water. […] The presence of tacrolimus was detected by electrospray mass spectroscopy.
Adalimumab was fluorescently tagged and purified. […] The level of adalimumab was measured by fluorescence. […]

CC(C)c1c(C(=O)Nc2ccccc2)c(-c2ccccc2)c(-c2ccc(F)cc2)n1CC[C@@H](O)C[C@@H](O)CC(=O)O [atorvastatin, reference compound]
crossing of the egg shell membrane (electrospray mass spectroscopy): did not cross
